No constants are given. Whether binding was seen depends on the method and setting. In cells and extracts the contact can be indirect. Some results given as binding are weak or reduced against the parent protein; the word gives no strength.
Assays:
[1] = target: Flag-HDAC6 (wild-type, full length, ectopic) (human) (UniProt Q9UBN7); assay: anti-Flag co-immunoprecipitation of Flag-HDAC6 from co-transfected U2OS cells, anti-Myc immunoblot
[2] = target: HR23B wild-type, myc/his tagged (Homo sapiens (Human)) (UniProt P54727); assay: anti-Flag co-immunoprecipitation from U2OS cells co-transfected with Flag-HDAC6 and myc-tagged HR23B, anti-Myc immunoblot (FIG. 4b)
[3] = target: HR23B, endogenous (Homo sapiens (Human)) (UniProt P54727); assay: anti-Flag co-immunoprecipitation of transfected Flag-HDAC6 from U2OS cells, immunoblot for endogenous HR23B (FIG. 4a)
[4] = target: HR23B, endogenous (Homo sapiens (Human)) (UniProt P54727); assay: anti-Flag co-immunoprecipitation from transfected U2OS cells, immunoblot for endogenous HR23B
[5] = target: HR23B, endogenous (Homo sapiens (Human)) (UniProt P54727); assay: summary of the co-immunoprecipitation results of Example 4
[6] = target: HR23B, endogenous (Homo sapiens (Human)) (UniProt P54727); assay: co-immunoprecipitation of endogenous proteins from U2OS extracts (anti-HR23B or anti-HDAC6), immunoblot

The chains behind the UniProt entries cited, without tags or fusion partners. Where a name states a change or a piece, a line headed by the entry shows the natural chain unless it says otherwise.
UniProt Q9UBN7: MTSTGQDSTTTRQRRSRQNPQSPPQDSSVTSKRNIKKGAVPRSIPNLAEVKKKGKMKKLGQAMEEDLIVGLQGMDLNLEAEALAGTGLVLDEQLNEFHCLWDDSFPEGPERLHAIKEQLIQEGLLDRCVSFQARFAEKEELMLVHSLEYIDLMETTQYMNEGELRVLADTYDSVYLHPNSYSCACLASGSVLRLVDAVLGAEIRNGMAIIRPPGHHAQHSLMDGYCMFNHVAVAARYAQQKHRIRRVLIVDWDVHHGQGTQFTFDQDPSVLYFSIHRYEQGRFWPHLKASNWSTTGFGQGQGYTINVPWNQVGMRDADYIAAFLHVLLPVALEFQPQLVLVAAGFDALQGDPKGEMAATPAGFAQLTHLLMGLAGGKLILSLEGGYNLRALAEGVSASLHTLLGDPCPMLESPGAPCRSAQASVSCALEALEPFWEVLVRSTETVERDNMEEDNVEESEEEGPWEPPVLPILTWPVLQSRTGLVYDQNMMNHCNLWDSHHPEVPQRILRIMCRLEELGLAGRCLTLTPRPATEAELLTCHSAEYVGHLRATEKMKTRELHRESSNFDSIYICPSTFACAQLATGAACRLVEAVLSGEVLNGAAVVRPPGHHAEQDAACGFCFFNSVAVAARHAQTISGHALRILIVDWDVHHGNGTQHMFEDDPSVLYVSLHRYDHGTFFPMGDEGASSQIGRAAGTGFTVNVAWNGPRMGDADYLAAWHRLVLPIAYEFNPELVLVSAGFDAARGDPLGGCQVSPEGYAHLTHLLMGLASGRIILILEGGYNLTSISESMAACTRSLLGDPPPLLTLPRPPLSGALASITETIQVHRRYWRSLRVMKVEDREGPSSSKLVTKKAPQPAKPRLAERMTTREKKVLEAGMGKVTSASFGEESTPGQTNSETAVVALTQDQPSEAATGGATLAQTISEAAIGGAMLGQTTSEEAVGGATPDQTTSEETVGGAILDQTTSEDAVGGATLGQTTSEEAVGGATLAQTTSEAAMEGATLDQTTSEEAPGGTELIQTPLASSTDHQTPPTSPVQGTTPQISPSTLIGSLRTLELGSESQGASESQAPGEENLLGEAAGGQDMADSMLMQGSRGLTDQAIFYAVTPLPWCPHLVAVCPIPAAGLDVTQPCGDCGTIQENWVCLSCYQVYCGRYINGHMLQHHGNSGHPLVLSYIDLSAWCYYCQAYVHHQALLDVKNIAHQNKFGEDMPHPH
UniProt P54727: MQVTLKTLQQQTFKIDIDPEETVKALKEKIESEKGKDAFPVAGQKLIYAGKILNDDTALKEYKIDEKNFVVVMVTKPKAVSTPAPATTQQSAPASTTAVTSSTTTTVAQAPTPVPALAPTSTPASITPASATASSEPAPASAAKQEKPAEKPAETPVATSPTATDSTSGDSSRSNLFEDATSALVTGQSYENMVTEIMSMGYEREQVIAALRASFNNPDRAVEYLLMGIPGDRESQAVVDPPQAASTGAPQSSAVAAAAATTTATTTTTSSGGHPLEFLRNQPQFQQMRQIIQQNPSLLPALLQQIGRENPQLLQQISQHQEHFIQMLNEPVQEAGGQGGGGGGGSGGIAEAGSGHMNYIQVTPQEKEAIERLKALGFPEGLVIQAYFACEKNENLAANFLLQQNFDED

Row | binding [1] | binding [4] | Substance | also measured
1 | binds | – | HR23B wild-type, myc/his tagged (from UniProt P54727 1-409) | –
2 | – | – | Flag-HDAC6 (wild-type, full length, ectopic) (from UniProt Q9UBN7 1-1215) (enzyme) | binding [2]: binds; binding [3]: binds
3 | – | binds | Flag-HDAC6 BUZ (BUZ domain alone) (from UniProt Q9UBN7 1109-1215) | –
4 | – | binds | Flag-HDAC6 ΔN (439-1215) (from UniProt Q9UBN7 439-1215) (enzyme) | –
5 | – | – | HDAC6 (histone deacetylase 6), endogenous (from UniProt Q9UBN7 1-1215) (enzyme) | binding [5]: binds; binding [6]: binds
6 | binds | – | HR23B ΔUbA, myc/his tagged (from UniProt P54727 1-189) | –

Reference: US20160069887A1, “BIOMARKERS FOR PROGNOSIS” (ISIS INNOVATION LIMITED, priority 2013, published 2016)
